# Data as given in PubChem BioAssay AID1259308 (NCATS, 2017)
# Aim: 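Genes whose loss raises luciferase production in HEK293 cells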 (primary screen)
# Cell system: human HEK293 embryonic kidney cells stably expressing firefly luciferase (HEK-CMV-Luc2-Hygro)
# Knock-down reagent: single siRNA against human genes, 0.8 pmol siRNA per well
# Duration: 72 h
# Measurement: 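Reporter luminescence and viable-cell signal on separate replicate plates, given as percent of non-targeting control and median/MAD z-scores, plus per-cell luciferase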
# Direction: total luciferase, z-score and total luciferase, % of control: higher = more reporter protein produced
# Hit rule: 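An siRNA counts as active if its total luciferase robust z-score exceeds 3; genes with two or more such siRNAs out of three were retested with fresh siRNAs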
# Calls: active = raised luciferase; inactive = no rise
# The whole screen tested about 59,000 reagents; this is an unselected part. Over the whole deposit, about 1,510 (2.6%) got an active call. 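Calls use total luciferase alone and ignore viability, so some active siRNAs may act by altering cell number.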 A number with no mark means an inactive call. Reagents against one gene are numbered here. Further read-outs or replicates are left out here.
Target gene,reagent,"total luciferase, z-score","total luciferase, % of control"
DNAJC2 (GeneID 27000),1,-2.34,35.3
DNAJC2 (GeneID 27000),2,-0.298,76
DNAJC2 (GeneID 27000),3,-0.0326,81.2
AP5B1 (GeneID 91056),1,-2.15,39.2
AP5B1 (GeneID 91056),2,2.97,141
AP5B1 (GeneID 91056),3,0.775,97.3
KLRG1 (GeneID 10219),1,-0.954,62.9
KLRG1 (GeneID 10219),2,-0.575,70.4
KLRG1 (GeneID 10219),3,0.194,85.7
DDX21 (GeneID 9188),1,-1.32,55.7
DDX21 (GeneID 9188),2,1.8,118
DDX21 (GeneID 9188),3,-0.924,63.5
TRADD (GeneID 8717),1,-1.36,54.8
TRADD (GeneID 8717),2,-0.605,69.8
TRADD (GeneID 8717),3,-0.667,68.6
CAPN7 (GeneID 23473),1,-0.15,78.9
CAPN7 (GeneID 23473),2,0.988,102
CAPN7 (GeneID 23473),3,2.17,125
ACIN1 (GeneID 22985),1,0.357,89
ACIN1 (GeneID 22985),2,0.24,86.7
ACIN1 (GeneID 22985),3,-0.479,72.4
ECHDC3 (GeneID 79746),1,6.52 (active),212
ECHDC3 (GeneID 79746),2,0.898,99.7
ECHDC3 (GeneID 79746),3,1.19,106
SOX17 (GeneID 64321),1,1.8,118
SOX17 (GeneID 64321),2,0.0946,83.8
SOX17 (GeneID 64321),3,-0.301,75.9
SERPINE3 (GeneID 647174),1,1.54,113
SERPINE3 (GeneID 647174),2,2.83,138
SERPINE3 (GeneID 647174),3,1.95,121
SPDEF (GeneID 25803),1,1.34,109
SPDEF (GeneID 25803),2,-3.35,15.3
SPDEF (GeneID 25803),3,-0.468,72.6
AFM (GeneID 173),1,-2.09,40.4
AFM (GeneID 173),2,-0.57,70.5
AFM (GeneID 173),3,0.116,84.2
GPR61 (GeneID 83873),1,-0.14,79.1
GPR61 (GeneID 83873),2,0.135,84.6
GPR61 (GeneID 83873),3,-0.395,74
H1-4 (GeneID 3008),1,4.26 (active),167
H1-4 (GeneID 3008),2,1.66,115
H1-4 (GeneID 3008),3,0.219,86.2
F2RL1 (GeneID 2150),1,1.97,121
F2RL1 (GeneID 2150),2,0.475,91.3
F2RL1 (GeneID 2150),3,0.282,87.5
MYADM (GeneID 91663),1,2.28,127
MYADM (GeneID 91663),2,-0.129,79.3
MYADM (GeneID 91663),3,-0.052,80.9
RBFOX3 (GeneID 146713),1,2.72,136
RBFOX3 (GeneID 146713),2,0.202,85.9
RBFOX3 (GeneID 146713),3,-0.0874,80.1
RBFOX3 (GeneID 146713),4,2.99,141
RBFOX3 (GeneID 146713),5,-1.26,56.8
RBFOX3 (GeneID 146713),6,-0.622,69.5
CSK (GeneID 1445),1,0.177,85.4
CSK (GeneID 1445),2,-0.074,80.4
CSK (GeneID 1445),3,2.23,126

9 successive entries from above:
Target gene,reagent,"total luciferase, z-score","total luciferase, % of control"
SPDEF (GeneID 25803),2,-3.35,15.3
SPDEF (GeneID 25803),3,-0.468,72.6
AFM (GeneID 173),1,-2.09,40.4
AFM (GeneID 173),2,-0.57,70.5
AFM (GeneID 173),3,0.116,84.2
GPR61 (GeneID 83873),1,-0.14,79.1
GPR61 (GeneID 83873),2,0.135,84.6
GPR61 (GeneID 83873),3,-0.395,74
H1-4 (GeneID 3008),1,4.26 (active),167
